# Experimental data published in the supplement of paper PMC11732987, “Enantioselective OTUD7B fragment discovery through chemoproteomics screening and high-throughput optimisation” (Communications Chemistry, 2025).
# Sequences of proteins named here, by UniProt entry; tags and fusion partners are left off. A change or cut given only in a name is not applied to a line headed by its entry.
# UniProt Q9Y4X5: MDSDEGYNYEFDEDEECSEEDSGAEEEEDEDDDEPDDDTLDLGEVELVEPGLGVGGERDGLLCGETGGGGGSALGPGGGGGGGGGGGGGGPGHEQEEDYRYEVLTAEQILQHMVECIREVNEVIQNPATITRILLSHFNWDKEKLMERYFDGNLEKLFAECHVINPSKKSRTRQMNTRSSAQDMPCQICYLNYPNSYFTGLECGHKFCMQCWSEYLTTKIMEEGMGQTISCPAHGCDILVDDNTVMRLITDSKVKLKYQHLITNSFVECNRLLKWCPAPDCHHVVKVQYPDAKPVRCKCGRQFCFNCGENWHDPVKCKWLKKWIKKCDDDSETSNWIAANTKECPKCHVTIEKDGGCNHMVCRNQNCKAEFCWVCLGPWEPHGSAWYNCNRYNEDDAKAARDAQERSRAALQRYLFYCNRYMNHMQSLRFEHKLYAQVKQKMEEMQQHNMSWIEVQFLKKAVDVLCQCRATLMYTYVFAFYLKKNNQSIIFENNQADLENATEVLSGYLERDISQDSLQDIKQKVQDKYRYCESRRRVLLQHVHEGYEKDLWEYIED
# UniProt O95782: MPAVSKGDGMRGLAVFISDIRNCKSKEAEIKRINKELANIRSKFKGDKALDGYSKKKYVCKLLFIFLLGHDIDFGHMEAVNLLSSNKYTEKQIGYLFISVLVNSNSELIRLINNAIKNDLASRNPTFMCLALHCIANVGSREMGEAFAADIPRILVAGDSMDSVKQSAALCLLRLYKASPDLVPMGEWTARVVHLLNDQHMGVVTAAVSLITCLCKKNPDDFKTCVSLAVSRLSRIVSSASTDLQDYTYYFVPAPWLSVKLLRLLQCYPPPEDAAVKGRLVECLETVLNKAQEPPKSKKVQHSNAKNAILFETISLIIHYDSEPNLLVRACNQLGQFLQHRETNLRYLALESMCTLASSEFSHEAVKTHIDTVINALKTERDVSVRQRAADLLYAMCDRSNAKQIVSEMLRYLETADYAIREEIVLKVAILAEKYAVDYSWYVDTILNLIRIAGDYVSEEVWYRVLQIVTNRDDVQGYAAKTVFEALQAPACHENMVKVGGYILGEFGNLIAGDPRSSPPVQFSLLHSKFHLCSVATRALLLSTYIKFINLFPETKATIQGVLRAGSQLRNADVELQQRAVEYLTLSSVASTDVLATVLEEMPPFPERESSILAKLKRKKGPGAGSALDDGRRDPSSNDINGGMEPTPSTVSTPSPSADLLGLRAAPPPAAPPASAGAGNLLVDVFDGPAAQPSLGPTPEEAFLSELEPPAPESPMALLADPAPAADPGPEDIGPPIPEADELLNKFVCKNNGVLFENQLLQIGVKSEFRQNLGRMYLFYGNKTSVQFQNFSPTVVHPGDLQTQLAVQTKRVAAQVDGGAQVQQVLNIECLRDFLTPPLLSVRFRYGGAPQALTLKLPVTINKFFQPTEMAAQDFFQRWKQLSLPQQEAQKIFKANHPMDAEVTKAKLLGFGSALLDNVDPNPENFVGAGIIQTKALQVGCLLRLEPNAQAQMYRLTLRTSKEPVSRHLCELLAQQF
# UniProt Q6P4F7: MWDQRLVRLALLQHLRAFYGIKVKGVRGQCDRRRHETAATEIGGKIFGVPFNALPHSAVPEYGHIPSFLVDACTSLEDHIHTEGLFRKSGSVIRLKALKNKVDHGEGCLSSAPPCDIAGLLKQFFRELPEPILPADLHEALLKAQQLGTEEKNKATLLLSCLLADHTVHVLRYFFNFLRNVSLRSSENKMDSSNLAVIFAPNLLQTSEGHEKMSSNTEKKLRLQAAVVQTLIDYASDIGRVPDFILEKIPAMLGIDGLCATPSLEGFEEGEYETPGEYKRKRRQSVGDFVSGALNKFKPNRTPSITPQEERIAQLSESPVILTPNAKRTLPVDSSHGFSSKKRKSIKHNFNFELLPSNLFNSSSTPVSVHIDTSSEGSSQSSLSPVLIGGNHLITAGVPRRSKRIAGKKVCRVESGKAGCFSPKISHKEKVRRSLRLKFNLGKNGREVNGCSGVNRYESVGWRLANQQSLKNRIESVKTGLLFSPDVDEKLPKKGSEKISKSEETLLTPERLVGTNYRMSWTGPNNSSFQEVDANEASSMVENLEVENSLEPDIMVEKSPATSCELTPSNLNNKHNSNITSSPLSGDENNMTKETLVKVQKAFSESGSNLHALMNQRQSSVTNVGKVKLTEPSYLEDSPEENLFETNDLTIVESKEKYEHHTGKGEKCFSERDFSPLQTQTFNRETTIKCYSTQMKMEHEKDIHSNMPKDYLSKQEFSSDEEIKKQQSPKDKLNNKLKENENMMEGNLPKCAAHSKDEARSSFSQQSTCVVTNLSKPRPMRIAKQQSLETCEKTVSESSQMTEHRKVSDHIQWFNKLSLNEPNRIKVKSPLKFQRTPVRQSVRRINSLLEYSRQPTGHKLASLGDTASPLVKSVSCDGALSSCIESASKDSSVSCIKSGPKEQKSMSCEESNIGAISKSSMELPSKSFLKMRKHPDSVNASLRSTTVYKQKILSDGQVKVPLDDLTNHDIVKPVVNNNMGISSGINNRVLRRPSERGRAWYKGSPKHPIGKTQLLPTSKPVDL
# UniProt O00192: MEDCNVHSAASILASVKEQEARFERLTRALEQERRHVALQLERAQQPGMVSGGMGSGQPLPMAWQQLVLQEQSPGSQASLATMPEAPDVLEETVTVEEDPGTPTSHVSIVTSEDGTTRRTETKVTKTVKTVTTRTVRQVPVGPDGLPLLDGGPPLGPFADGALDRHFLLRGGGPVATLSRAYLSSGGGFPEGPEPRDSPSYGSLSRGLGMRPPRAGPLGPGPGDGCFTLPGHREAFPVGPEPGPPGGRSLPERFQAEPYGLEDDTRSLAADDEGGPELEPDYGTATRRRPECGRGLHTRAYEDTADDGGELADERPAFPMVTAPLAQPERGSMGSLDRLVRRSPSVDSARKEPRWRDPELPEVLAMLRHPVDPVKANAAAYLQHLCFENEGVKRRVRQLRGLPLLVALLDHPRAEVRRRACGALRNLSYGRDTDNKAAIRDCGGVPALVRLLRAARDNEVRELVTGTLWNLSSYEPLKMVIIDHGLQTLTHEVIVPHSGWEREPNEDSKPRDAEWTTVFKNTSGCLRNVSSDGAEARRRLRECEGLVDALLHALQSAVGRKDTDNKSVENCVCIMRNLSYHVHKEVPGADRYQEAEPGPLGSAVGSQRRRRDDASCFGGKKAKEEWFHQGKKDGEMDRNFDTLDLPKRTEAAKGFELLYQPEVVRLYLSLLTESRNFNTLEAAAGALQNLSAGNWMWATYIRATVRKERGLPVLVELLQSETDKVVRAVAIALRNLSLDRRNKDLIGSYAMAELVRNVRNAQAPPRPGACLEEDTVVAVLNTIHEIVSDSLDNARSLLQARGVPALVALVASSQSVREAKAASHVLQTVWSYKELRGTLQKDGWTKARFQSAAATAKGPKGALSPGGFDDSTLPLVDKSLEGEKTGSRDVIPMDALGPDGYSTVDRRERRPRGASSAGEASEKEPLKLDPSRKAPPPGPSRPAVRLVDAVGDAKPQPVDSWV
# UniProt Q8N3C0, whole entry, looked up: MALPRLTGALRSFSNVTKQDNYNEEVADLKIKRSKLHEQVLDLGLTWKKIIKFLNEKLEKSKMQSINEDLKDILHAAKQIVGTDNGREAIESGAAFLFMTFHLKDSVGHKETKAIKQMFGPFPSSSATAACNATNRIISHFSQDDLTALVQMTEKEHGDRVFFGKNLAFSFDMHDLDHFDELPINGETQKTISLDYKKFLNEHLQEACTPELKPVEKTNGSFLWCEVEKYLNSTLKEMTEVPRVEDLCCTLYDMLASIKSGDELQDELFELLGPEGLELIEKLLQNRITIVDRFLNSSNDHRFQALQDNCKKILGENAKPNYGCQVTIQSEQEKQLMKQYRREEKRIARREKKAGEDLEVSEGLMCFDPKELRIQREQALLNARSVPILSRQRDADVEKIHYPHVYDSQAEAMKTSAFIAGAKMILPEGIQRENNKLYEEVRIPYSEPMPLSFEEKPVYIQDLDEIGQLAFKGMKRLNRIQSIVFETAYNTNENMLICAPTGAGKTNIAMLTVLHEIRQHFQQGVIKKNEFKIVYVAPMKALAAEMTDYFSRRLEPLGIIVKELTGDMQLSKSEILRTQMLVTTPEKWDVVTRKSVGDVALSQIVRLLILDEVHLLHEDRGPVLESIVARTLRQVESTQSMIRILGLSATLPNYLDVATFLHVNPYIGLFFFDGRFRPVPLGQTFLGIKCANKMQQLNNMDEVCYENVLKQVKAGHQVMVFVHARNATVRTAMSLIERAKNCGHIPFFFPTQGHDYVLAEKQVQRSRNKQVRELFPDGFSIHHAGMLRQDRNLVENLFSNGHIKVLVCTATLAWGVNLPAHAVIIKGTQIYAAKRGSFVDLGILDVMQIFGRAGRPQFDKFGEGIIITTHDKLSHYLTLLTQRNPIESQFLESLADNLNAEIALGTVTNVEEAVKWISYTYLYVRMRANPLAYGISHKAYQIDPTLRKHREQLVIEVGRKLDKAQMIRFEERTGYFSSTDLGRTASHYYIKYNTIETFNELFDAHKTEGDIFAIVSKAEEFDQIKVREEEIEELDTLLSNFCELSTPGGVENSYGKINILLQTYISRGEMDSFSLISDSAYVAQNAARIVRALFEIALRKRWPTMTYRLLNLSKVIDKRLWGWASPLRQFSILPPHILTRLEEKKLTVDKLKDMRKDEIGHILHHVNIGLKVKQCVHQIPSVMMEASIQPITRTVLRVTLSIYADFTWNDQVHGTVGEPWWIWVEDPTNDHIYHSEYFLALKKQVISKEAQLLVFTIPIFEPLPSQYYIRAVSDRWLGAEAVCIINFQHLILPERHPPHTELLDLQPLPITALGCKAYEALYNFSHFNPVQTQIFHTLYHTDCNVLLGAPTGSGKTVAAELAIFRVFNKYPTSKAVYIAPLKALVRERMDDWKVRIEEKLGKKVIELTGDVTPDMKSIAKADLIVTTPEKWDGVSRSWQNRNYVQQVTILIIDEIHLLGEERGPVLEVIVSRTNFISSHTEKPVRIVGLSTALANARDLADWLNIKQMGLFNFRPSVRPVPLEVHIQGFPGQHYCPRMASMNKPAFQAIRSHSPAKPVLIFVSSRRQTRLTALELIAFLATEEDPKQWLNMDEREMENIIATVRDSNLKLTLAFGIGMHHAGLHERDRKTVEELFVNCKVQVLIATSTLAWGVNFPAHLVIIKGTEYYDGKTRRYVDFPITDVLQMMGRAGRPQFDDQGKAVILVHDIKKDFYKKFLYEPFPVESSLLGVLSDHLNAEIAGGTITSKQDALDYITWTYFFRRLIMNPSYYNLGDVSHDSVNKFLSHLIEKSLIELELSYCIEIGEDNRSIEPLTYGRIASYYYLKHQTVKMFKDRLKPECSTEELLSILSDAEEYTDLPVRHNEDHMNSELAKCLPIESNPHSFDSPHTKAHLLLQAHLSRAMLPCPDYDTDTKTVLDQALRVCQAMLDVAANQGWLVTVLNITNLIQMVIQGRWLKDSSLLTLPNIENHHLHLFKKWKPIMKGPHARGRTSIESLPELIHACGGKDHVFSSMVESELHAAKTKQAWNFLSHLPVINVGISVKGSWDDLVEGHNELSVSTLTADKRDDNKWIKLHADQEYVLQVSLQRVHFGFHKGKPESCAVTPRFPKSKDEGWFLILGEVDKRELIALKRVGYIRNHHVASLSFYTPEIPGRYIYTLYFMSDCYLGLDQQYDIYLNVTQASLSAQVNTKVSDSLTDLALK
# Some of the results follow. The data scatter; read single values as rough.
# Compound: ClCC(=O)N[C@H]1CCCc2ccccc12
# Experiment: log2 mean competition ratio of IA-DTB cysteine labelling (DMSO/compound) (log2 ratio); higher = stronger cysteine engagement by compound
# Conditions: 200 µM; treatment time: 4 h; cell line lysate: HEK293T
# Experimental: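 IA-DTB competitive cysteine chemoproteomics in HEK293T RIPA lysate. Lysates were treated with compound 29 or 30 at 50 or 200 µM for 4 h, then IA-DTB (500 µM, 1 h), trypsin-digested, NeutrAvidin-enriched and analysed by diaPASEF. Competition ratio = intensity DMSO / intensity compound (n=4 treated, n=64 DMSO); binding: mean log2 CR ≥ 1 and p ≤ 0.05 plus QC filters. Target is the cysteine site.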
row,Target,log2 mean competition ratio
1,ARIH1 C161 (UniProt Q9Y4X5),-0.331
2,ANKRD26 C1106 (UniProt Q9UPS8),0.0168
3,ARHGEF28 C783,0.138
4,AP2A1 C267 (UniProt O95782),-0.0382
5,ARHGAP11A C690 (UniProt Q6P4F7),0.0527
6,ARVCF C442 (UniProt O00192),0.526
7,ARHGEF26 C850,0.0346
8,ARHGEF26 C566,0.524
9,ANXA2 C133,0.318
10,ASCC3 C1638 (UniProt Q8N3C0),-0.208
11,ARHGAP31 C572,0.206
12,ASCC3 C366 (UniProt Q8N3C0),-0.192

# Reprinted at random: 2 entries already listed
row,Target,log2 mean competition ratio
3,ARHGEF28 C783,0.138
8,ARHGEF26 C566,0.524
